{
  "source": "PubChem BioAssay AID504467",
  "about": "(National Center for Advancing Translational Sciences (NCATS), 2011)",
  "note": "About 7,700 (2.3%) of roughly 330,000 compounds were called active. Inconclusive results, whose numbers are uncertain, are shown with a selection of clear calls. Calls follow the shape of the dose curve; as a rule, active = well fitted inhibition curve with a large enough effect; inconclusive = small, poorly fitted or top-dose-only effect, or effect the other way; inactive = flat fitted curve, though single readings scatter. Where the call is inconclusive, the potency comes from a doubtful curve fit. Potency is read from the fitted curve at half-maximal effect.",
  "data": [
    {"assay": "qHTS screen for small molecules that inhibit ELG1-dependent DNA repair in human embryonic kidney (HEK293T) cells expressing luciferase-tagged ELG1; also: nearly all actives have a fitted effect of over 55% in size", "conditions": "HEK293T ELG1-luciferase reporter, luminescence, 16 h, DNA damage induced by 5-fluorouridine; series mostly up to 46.1 µM", "in_short": "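Quantitative HTS, concentration-response format. 2,000 cells/well co-treated with 5-fluorouridine and compound, 16 hr in 5% CO2 at 37 °C; ONE-Glo luminescence read after 30 min.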", "values": [
      {"smiles": "Cc1ccc(NC(=S)NCCc2ccccc2)c(C)c1", "Potency": "inactive"},
      {"smiles": "Cc1ccc(Sc2ncnc(N)c2[N+](=O)[O-])cc1", "Potency": "inconclusive: 2.91 µM [inhibitor, partial curve]"},
      {"smiles": "CCOC(=O)c1cccc(NC(=O)C2CCN(c3ncnc4c3nc3n4CCCCC3)CC2)c1", "Potency": "active: 0.461 µM"},
      {"smiles": "Cc1cc(OCC(=O)Nc2cc(-c3nn4c(C)nnc4s3)ccc2C)ccc1Cl", "Potency": "inconclusive: 29.1 µM [activator, single point]"},
      {"smiles": "O=C(C1CCC(CNS(=O)(=O)c2ccccc2)CC1)N1CCCCC1", "note": "(stereo not drawn)", "Potency": "inconclusive: 18.3 µM [inhibitor, partial curve]"},
      {"smiles": "CC(OC(=O)CN1C(=O)COc2ccccc21)C(=O)NCc1ccc(F)cc1", "note": "(stereo not drawn)", "Potency": "inconclusive: 0.231 µM [inhibitor, single point]"},
      {"smiles": "Cc1ccc(-c2nnc(NCc3nc4ccccc4[nH]3)c3ccccc23)cc1S(=O)(=O)N1CCOCC1", "Potency": "active: 4.61 µM"},
      {"smiles": "O=C(Nc1cc(S(=O)(=O)N2CCOCC2)ccc1N1CCCCC1)c1ccccc1Br", "Potency": "inconclusive: 32.6 µM [inhibitor, single point]"},
      {"smiles": "Nc1cc(C(=O)OCC(=O)NCCNC(=O)COC(=O)c2ccc(Cl)c(N)c2)ccc1Cl", "Potency": "inactive"},
      {"smiles": "COc1cc(/C=C(\\C#N)C(=O)Nc2cccc3ncccc23)cc(OC)c1OC", "Potency": "inconclusive: 14.6 µM [inhibitor, partial curve, poor fit]"},
      {"smiles": "Cn1cc([N+](=O)[O-])c(C(=O)Nc2ccc(C3CCCCC3)cc2)n1", "Potency": "inconclusive: 18.3 µM [activator, single point]"},
      {"smiles": "CC(=O)/C(=N\\Nc1ccccc1Cl)Sc1nnc(-c2ccccc2)n1-c1ccccc1", "Potency": "inactive"},
      {"smiles": "COc1ccc(/C=C/C(=O)Nc2ccc(OC)nc2)cc1", "Potency": "inactive"},
      {"smiles": "CCCNC(=O)c1ccc2nc(-c3ccccc3)c(-c3ccccc3)nc2c1", "Potency": "inconclusive: 25.9 µM [inhibitor, single point]"},
      {"smiles": "CCOC(=O)/C(=C/C1=CC(=C/N(C)C)/C(=O)O1)C(C)=O", "Potency": "inactive"},
      {"smiles": "Cc1ccc(Nc2nc(-c3ccccc3)c(CC(=O)O)s2)cc1", "Potency": "inconclusive: 20.6 µM [activator, partial curve]"},
      {"smiles": "COC(=O)c1cc(OCC(=O)NC2CCCc3ccccc32)cc(C(=O)OC)c1", "note": "(stereo not drawn)", "Potency": "inconclusive: 29.1 µM [inhibitor, single point]"},
      {"smiles": "COc1ccccc1-n1cnc2cc(NS(=O)(=O)c3ccc(Br)cc3)ccc21", "Potency": "inconclusive: 18.4 µM [inhibitor, single point]"},
      {"smiles": "CCc1ccc(CNC(=O)C2CCCN(S(=O)(=O)N3CC(C)CC(C)C3)C2)cc1", "note": "(stereo not drawn)", "Potency": "inactive"},
      {"smiles": "C/C(=N\\Nc1ccc(C(=O)O)cc1)c1ccc(Cl)s1", "Potency": "inconclusive: 1.03 µM [activator, partial curve]"},
      {"smiles": "Cc1ccc(NC(=O)COC(=O)c2ccccc2-c2nc3ccccc3s2)c(C)c1", "Potency": "inconclusive: 29.1 µM [inhibitor, single point]"},
      {"smiles": "CCOC(=O)Cc1cc(=O)[nH]c(/N=C(\\N)Nc2ccc(OC)cc2)n1", "Potency": "inconclusive: 2.06 µM [inhibitor, partial curve, poor fit]"},
      {"smiles": "CC(C)C[C@@H](CO)N1CCN(C)CCC1=O", "Potency": "inactive"},
      {"smiles": "COc1cc(C(=O)NNC(=O)COc2cccc(F)c2)ccc1OCC(=O)N1CCOCC1", "Potency": "inactive"},
      {"smiles": "CCC(=O)N(C)C(c1ccccc1Cl)c1nnnn1-c1c(C)cccc1C", "note": "(stereo not drawn)", "Potency": "inconclusive: 16.4 µM [inhibitor, partial curve, poor fit]"},
      {"smiles": "COc1ccc(/C=N/NC(=O)c2cc(C34CC5CC(CC(C5)C3)C4)[nH]n2)cc1OC", "Potency": "inconclusive: 29.1 µM [activator, single point]"},
      {"smiles": "CCOc1cc(/C=N/Nc2cccc(C(=O)O)c2)ccc1OC(=O)c1ccccc1", "Potency": "inconclusive: 0.231 µM [activator, partial curve]"},
      {"smiles": "COC(=O)C1CCN(C(=O)COC(=O)c2cc(-c3ccccc3)nc3ccc(OC)cc23)CC1", "Potency": "active: 18.3 µM"},
      {"smiles": "Cc1cc(CNC(=O)c2cc(-c3ccccc3)nc3ccccc23)nn1C", "Potency": "inconclusive: 20.6 µM [inhibitor, single point]"},
      {"smiles": "Cc1ccc(S(=O)(=O)N2CCN(C(=O)COC(=O)c3c(C)cc(C)cc3C)CC2)c(C)c1", "Potency": "inconclusive: 0.73 µM [inhibitor, single point]"},
      {"smiles": "COc1cccc(C2(c3cccc(OC)c3)CC2C(=O)Nc2cccc3ccccc23)c1", "note": "(stereo not drawn)", "Potency": "inconclusive: 29.1 µM [activator, single point]"},
      {"smiles": "CCOc1ccc(NC(=O)COC(=O)c2n[nH]c3ccccc23)cc1", "Potency": "inconclusive: 9.2 µM [activator, partial curve]"},
      {"smiles": "CC(C)C(NC(=O)C12CC3CC(CC(C3)C1)C2)C(=O)N/N=C/C1=C(N2CCOCC2)C(=C\\c2ccc([N+](=O)[O-])cc2)/CC1", "note": "(stereo not drawn)", "Potency": "inactive"},
      {"smiles": "Cc1cc2c(ccc3[nH]onc32)n1", "Potency": "inconclusive: 18.4 µM [inhibitor, partial curve, poor fit]"},
      {"smiles": "CCCCCC(=O)NNC1=NCC(Cc2cccc(Cl)c2)S1", "note": "(stereo not drawn)", "Potency": "inactive"},
      {"smiles": "C/C(=N/OCc1ccc(Br)cc1)c1ccccn1", "Potency": "inconclusive: 5.17 µM [activator, partial curve]"},
      {"smiles": "COc1ccccc1C1CC(c2ccco2)=NN1S(C)(=O)=O", "note": "(stereo not drawn)", "Potency": "inconclusive: 32.6 µM [activator, partial curve, poor fit]"},
      {"smiles": "COC(=O)c1sc(S(=O)(=O)Nc2c(C)nn(C)c2C)c(C(=O)OC)c1C", "Potency": "inactive"},
      {"smiles": "Cc1cc(NC(=O)c2ccco2)ccc1-n1cnnn1", "Potency": "inconclusive: 20 µM [activator, single point]"},
      {"smiles": "CCCc1cc(=O)[nH]c(SCc2nc3ccccc3s2)n1", "Potency": "inactive"},
      {"smiles": "CCOc1ccc2[nH]c(=O)c(CN(CCO)C(c3nnnn3C3CCCCC3)C(C)C)cc2c1", "note": "(stereo not drawn)", "Potency": "inconclusive: 23.1 µM [inhibitor, partial curve]"},
      {"smiles": "O=C(OCC(=O)c1ccc(Br)s1)c1ccc(O)cc1", "Potency": "inconclusive: 29.1 µM [activator, single point]"},
      {"smiles": "c1ccc(CNc2nnnn2-c2ccccc2)cc1", "Potency": "inconclusive: 14.6 µM [inhibitor, partial curve]"}
    ]}
  ]
}
